{
  "source": "PubChem BioAssay AID540276",
  "about": "(National Center for Advancing Translational Sciences (NCATS), 2011)",
  "note": "“And” between values parts separate entries of the source, which are not always exact repeats. Identical values can stand only once. About 5,400 (1.8%) of roughly 300,000 compounds were called active. The inconclusive results got no clear call from the source; some entries with a clear call stand among them for comparison. Calls come from the whole dose curve; tested in HEK293 cells. Potencies of inconclusive entries are doubtful fits and often do not repeat. % is set by controls: 0 for no effect and ±100 for the full control effect; potency is the fitted concentration of half-maximal effect.",
  "data": [
    {"experiment": "qHTS for inhibitors of binding or entry into cells for Marburg Virus", "settings": "Marburg virus pseudotyped entry inhibition, cell reporter; activity change, negative = inhibition: at 37.8 µM (top of the series) unless noted", "values": [
      {"smiles": "COC(=O)CNc1nc(-c2ccccc2F)nc2ccccc12", "Potency": "inconclusive: 3.55 µM [inhibitor, single point]"},
      {"smiles": "c1ccc2[nH]c(SCc3cn4ccccc4n3)nc2c1", "Potency": "inconclusive: 11.2 µM [activator, partial curve, poor fit]"},
      {"smiles": "CCCCN(CC)CCNC(=O)c1cc2c(-c3ccc(Cl)cc3)nn(C)c2s1", "Potency": "active: 3.55 µM"},
      {"smiles": "COc1cc(NC(=O)CCc2c(C)nc3nc(-c4cc(OC)cc(OC)c4)nn3c2C)cc(OC)c1", "activity change, negative = inhibition": "inactive: 7.19% [at 46.1 µM]"},
      {"smiles": "COc1ccc(-c2ccc(CN3C(CC(C)C)C(=O)N(Cc4cn(Cc5ccco5)nn4)CCS3(=O)=O)cc2)cc1", "note": "(configuration not stated)", "Potency": "inconclusive: 25 µM [inhibitor, partial curve, poor fit]"},
      {"smiles": "FC(F)Oc1ccc(-c2csc(NNC3=NCCCCC3)n2)cc1", "Potency": "inconclusive: 15.8 µM [inhibitor, single point]"},
      {"smiles": "CCCCNC(=S)NNC(=O)C1=NN(c2cc(C)ccc2C)C(=O)CC1", "Potency": "inconclusive: 28.2 µM [inhibitor, single point]"},
      {"smiles": "Cc1ccc(S(=O)(=O)Cn2cnnn2)cc1", "Potency": "inconclusive: 3.66 µM [inhibitor, single point]"},
      {"smiles": "CCN(CC)CCN(Cc1cc2cc3c(cc2[nH]c1=O)OCCO3)C(=O)NC1CCCCC1", "activity change, negative = inhibition": "inactive: -20.1%"},
      {"smiles": "CC1CCCCC1NC(=O)COC(=O)COc1ccccc1Cl", "note": "(configuration not stated)", "Potency": "inconclusive: 22.4 µM [inhibitor, single point]"},
      {"smiles": "CCNc1nc(CN2CCCCC2)nc2scc(-c3ccccc3)c12", "Potency": "active: 4.47 µM"},
      {"smiles": "CCOC(=O)c1ccc(Oc2cc(C)nc(Cl)n2)cc1", "activity change, negative = inhibition": "inactive: 6.98% [at 14.2 µM]"},
      {"smiles": "CCCNC(=S)Nc1ccc(F)cc1F", "Potency": "inconclusive: 0.708 µM [inhibitor, full curve]"},
      {"smiles": "COCC(=O)Nc1cc([N+](=O)[O-])ccc1C", "Potency": "inconclusive: 6.31 µM [activator, single point]"},
      {"smiles": "Cc1ccc(NC(=O)c2ccccc2-c2ccccc2C(=O)O)cc1", "Potency": "inconclusive: 25.1 µM [activator, single point]"},
      {"smiles": "O=C(Cc1cccs1)Nc1cccc(-c2nc3cc4ccccc4cc3[nH]2)c1", "Potency": "inconclusive: 29.1 µM [inhibitor, single point]"},
      {"smiles": "O=C(CN1CCN(c2ccc(F)cc2)CC1)c1ccc2c(c1)OCO2", "activity change, negative = inhibition": "inactive: -1.27%"},
      {"smiles": "COc1ccc(OC)c(-c2cc(C(=O)Nc3cccc(Cl)c3C)no2)c1", "activity change, negative = inhibition": "inactive: 8.12% [at 46.1 µM]"},
      {"smiles": "CCOC(=O)C1=C(N)n2c(s/c(=C\\c3cccs3)c2=O)=C(C(=O)OCC)C1c1cccs1", "note": "(configuration not stated)", "Potency": "inconclusive: 5.62 µM [inhibitor, full curve, poor fit]"},
      {"smiles": "O=C(CCc1nc2ccccc2c(=O)[nH]1)Nc1nnc(SCc2ccccc2)s1", "Potency": "inconclusive: 10 µM [activator, single point]"},
      {"smiles": "COc1ccccc1NC(=O)Cn1nnc(-c2ccccc2NS(=O)(=O)c2ccccc2)n1", "Potency": "inconclusive: 35.5 µM [inhibitor, single point]"},
      {"smiles": "COc1ccccc1C(=O)NC(CCSC)C(=O)NCCCSc1ccccc1", "note": "(configuration not stated)", "Potency": "inconclusive: 2.82 µM [inhibitor, single point]"},
      {"smiles": "CCCN1CCN(C(=O)CN2C(=O)COc3ccc(S(=O)(=O)N(CC)CC)cc32)CC1", "activity change, negative = inhibition": "inactive: 8.17% [at 46.1 µM]"},
      {"smiles": "CC1CCN(CC[C@H]2CCCN2S(=O)(=O)c2cccc(O)c2)CC1", "Potency": "inactive and inconclusive: 4.5 nM [activator, full curve, poor fit]"},
      {"smiles": "c1ccc2c(c1)CC1CNCc3cccc(c31)S2", "note": "(configuration not stated)", "Potency": "inconclusive: 0.562 µM [inhibitor, full curve, poor fit]"},
      {"smiles": "CC1(C)CC(NC(=S)Nc2ccc([N+](=O)[O-])cc2)CC(C)(C)N1", "activity change, negative = inhibition": "inactive: 29.6%"},
      {"smiles": "Cc1ccc(C(=O)N2CCC(c3c[nH]c4ccccc34)(c3c[nH]c4ccccc34)CC2)cc1", "Potency": "inconclusive: 12.6 µM [inhibitor, single point]"},
      {"smiles": "O=[N+]([O-])c1ccccc1S(=O)(=O)Nc1ccc(-c2ccc(N3CCOCC3)nn2)cc1", "activity change, negative = inhibition": "inconclusive: 33.3% [activator] [at 46.1 µM]"},
      {"smiles": "COc1ccc(CCN=C(NS(=O)(=O)c2ccc(Cl)cc2)c2ccccc2)cc1", "Potency": "inconclusive: 10 µM [inhibitor, partial curve]"},
      {"smiles": "Cc1ccccc1C(=O)c1c[nH]c(C(=O)NCc2cccs2)c1", "Potency": "inconclusive: 31.6 µM [activator, single point]"},
      {"smiles": "C/C(N)=C(/C#N)C(=O)COC(=O)c1cc(C)n(-c2ccc(F)cc2)c1C", "Potency": "active: 2 µM"},
      {"smiles": "Cc1cc(-c2csc(NC(=O)c3ccc(=O)n(C)n3)n2)c(C)n1CC1CCCO1", "note": "(configuration not stated)", "activity change, negative = inhibition": "inactive: -42.3%"},
      {"smiles": "CC1(C)CC(=O)C(C2(O)C(=O)N(Cc3ccccc3)c3ccccc32)CO1", "note": "(configuration not stated)", "Potency": "inconclusive: 18.3 µM [inhibitor, single point]"},
      {"smiles": "c1ccc(NCC2OCc3ccccc3CO2)cc1", "activity change, negative = inhibition": "inactive: 0.649%"},
      {"smiles": "CCNC(=O)COc1ccc(-c2ccccc2)cc1", "Potency": "inconclusive: 3.16 µM [activator, full curve, poor fit]"},
      {"smiles": "O=C(NNC(=O)c1cccc2ccccc12)c1ccc(F)cc1", "Potency": "inconclusive: 1.26 µM [activator, single point]"},
      {"smiles": "CC(C)c1nc(C(=O)N2CCCC(N3CCN(c4cccc(Cl)c4)CC3)C2)cs1", "note": "(configuration not stated)", "Potency": "inconclusive: 35.5 µM [inhibitor, single point]"},
      {"smiles": "Cc1ccc(-c2nnn(CC(=O)N(CC3CCCO3)C(C(=O)NC3CCCC3)c3ccc(F)cc3)n2)o1", "note": "(configuration not stated)", "Potency": "inconclusive: 3.16 µM [activator, single point]"},
      {"smiles": "O=C(CSc1nc2c(oc3ccccc32)c(=O)n1Cc1ccco1)Nc1cccc(Cl)c1", "Potency": "inconclusive: 5.62 µM [activator, single point]"},
      {"smiles": "CCC1CN2CCC1CC2[C@@H](Oc1cc2ccccc2c2ccccc12)c1ccnc2ccc(O)cc12", "note": "(some centres not stated)", "Potency": "inconclusive: 0.0376 µM [activator, full curve, poor fit]"},
      {"smiles": "Oc1[nH]c(=S)sc1C=C1N=c2ccccc2=N1", "activity change, negative = inhibition": "inactive: 2.45% [at 14.2 µM]"},
      {"smiles": "Nc1ccccc1Nc1ccc([N+](=O)[O-])cc1[N+](=O)[O-]", "Potency": "inconclusive: 14.1 µM [inhibitor, single point]"},
      {"smiles": "Cc1cc(NC(=O)Nc2cccs2)no1", "activity change, negative = inhibition": "inactive: 14.4%"},
      {"smiles": "Cc1cccc(NC(=O)C2SC(=Nc3c(C)cccc3C)C(C(=O)N3CCOCC3)=C2N)c1", "note": "(configuration not stated)", "Potency": "inconclusive: 11.2 µM [inhibitor, partial curve, poor fit]"},
      {"smiles": "Cc1cc(C)nc(NC(=O)Cc2ccc(Br)cc2)n1", "Potency": "inconclusive: 5.62 µM [inhibitor, single point]"},
      {"smiles": "CC1(C)NC(=O)N(CC(=O)OCC(=O)Nc2cc(S(=O)(=O)N3CCCCCC3)ccc2Cl)C1=O", "Potency": "inconclusive: 5.62 µM [activator, single point]"},
      {"smiles": "COc1ccccc1/C=N/NC(=O)CSc1ccc2ccccc2n1", "Potency": "inconclusive: 7.08 µM [inhibitor, partial curve, poor fit]"},
      {"smiles": "CC(C)(C)OC(=O)n1cc(/C=N/NC(=O)c2ccco2)c2ccccc21", "activity change, negative = inhibition": "inactive: -2.04% [at 46.1 µM]"},
      {"smiles": "O=C(c1ccc(CS(=O)Cc2ccc(Cl)cc2)o1)N1CCN(c2ccc(F)cc2)CC1", "note": "(configuration not stated)", "Potency": "inconclusive: 35.5 µM [inhibitor, single point]"},
      {"smiles": "O=C(Nc1ccc(Nc2ccccc2)cc1)c1ccco1", "Potency": "inconclusive: 35.5 µM [inhibitor, single point]"},
      {"smiles": "COC(=O)c1[nH]c2cc(C)ccc2c1NC(=O)CN1CCCc2ccccc21", "Potency": "inconclusive: 1.26 µM [activator, partial curve, poor fit]"},
      {"smiles": "Cc1ccc(-c2nn(-c3ccccc3)cc2/C=N/NC(=O)c2ccc(Br)o2)cc1", "Potency": "inconclusive: 35.5 µM [inhibitor, single point]"},
      {"smiles": "S=c1[nH]nc(-c2cccc3ccccc23)n1-c1cccnc1", "activity change, negative = inhibition": "inactive: 5.68% [at 46.1 µM]"},
      {"smiles": "O=C(NN=C(Cc1ccccc1)Cc1ccccc1)c1ccccc1O", "Potency": "inconclusive: 11.2 µM [inhibitor, partial curve, poor fit]"},
      {"smiles": "Cc1ccc(/C=N/NC(=O)CCCOc2ccc(Cl)cc2Cl)cc1[N+](=O)[O-]", "Potency": "inconclusive: 35.5 µM [inhibitor, single point]"},
      {"smiles": "O=C(N/N=C/C1CC=CCC1)c1ccc(Cl)cc1O", "note": "(configuration not stated)", "activity change, negative = inhibition": "inactive: 6.58%"},
      {"smiles": "CCOc1ccc(/C=N/NC(=O)c2cc(-c3cccn3C)n[nH]2)cc1", "activity change, negative = inhibition": "inactive: -27.1% [at 46.1 µM]"},
      {"smiles": "Cn1c(=O)oc2cc(S(=O)(=O)N3CCCC(C(=O)Nc4ccc(Br)cc4F)C3)ccc21", "note": "(configuration not stated)", "Potency": "inconclusive: 6.31 µM [activator, single point]"},
      {"smiles": "CC(C)CNC(=O)C(=O)NNC(=O)C1CCCCC1", "Potency": "inconclusive: 1.3 µM [inhibitor, single point]"},
      {"smiles": "Cc1ccc(C(=O)NCCc2nnc3ccc(SCC(=O)N4CCCCC4)nn23)cc1", "activity change, negative = inhibition": "inactive: -10.7%"},
      {"smiles": "CCCc1ccc(-c2c(C)sc(NC(=O)c3ccnn3C)c2C#N)cc1", "Potency": "inconclusive: 20 µM [inhibitor, single point]"},
      {"smiles": "CCOC(=O)c1ccccc1NC(=O)Cn1c(-c2nonc2N)nc2ccccc21", "Potency": "active: 0.0517 µM"},
      {"smiles": "Cc1cccc(N2CC(C(=O)Nc3nnc(SCCN4CCOCC4)s3)CC2=O)c1", "note": "(configuration not stated)", "Potency": "inconclusive: 17.8 µM [activator, single point]"},
      {"smiles": "COc1cc(C(=O)NC(=S)Nc2ccc([N+](=O)[O-])cc2C)cc(OC)c1OC", "Potency": "inconclusive: 2.82 µM [activator, single point]"},
      {"smiles": "CC(C)OC(=O)CC12CN3CC(CC(=O)OC(C)C)(CN(C1)C(=O)c1ccccc1C3=O)C2=O", "Potency": "inactive"},
      {"smiles": "CCN1C(=O)c2cccc3c(S(=O)(=O)N(C(=O)c4ccncc4)c4ccc(OC)cc4)ccc1c23", "Potency": "inconclusive: 15.8 µM [inhibitor, single point]"},
      {"smiles": "CCn1c(SCC(=O)Nc2ccc(S(N)(=O)=O)cc2)nnc1-c1ccccc1OC", "activity change, negative = inhibition": "inactive: 2.21%"}
    ]}
  ]
}
